From article PMC3791834
No constants are given. Whether binding was seen depends on the method and setting. Binding seen in cells or lysates may run through a third protein. Some binding calls cover weakened binding; strength is not graded here.

Chains of the proteins cited; added tags and fusions are not shown.
UniProt O95819: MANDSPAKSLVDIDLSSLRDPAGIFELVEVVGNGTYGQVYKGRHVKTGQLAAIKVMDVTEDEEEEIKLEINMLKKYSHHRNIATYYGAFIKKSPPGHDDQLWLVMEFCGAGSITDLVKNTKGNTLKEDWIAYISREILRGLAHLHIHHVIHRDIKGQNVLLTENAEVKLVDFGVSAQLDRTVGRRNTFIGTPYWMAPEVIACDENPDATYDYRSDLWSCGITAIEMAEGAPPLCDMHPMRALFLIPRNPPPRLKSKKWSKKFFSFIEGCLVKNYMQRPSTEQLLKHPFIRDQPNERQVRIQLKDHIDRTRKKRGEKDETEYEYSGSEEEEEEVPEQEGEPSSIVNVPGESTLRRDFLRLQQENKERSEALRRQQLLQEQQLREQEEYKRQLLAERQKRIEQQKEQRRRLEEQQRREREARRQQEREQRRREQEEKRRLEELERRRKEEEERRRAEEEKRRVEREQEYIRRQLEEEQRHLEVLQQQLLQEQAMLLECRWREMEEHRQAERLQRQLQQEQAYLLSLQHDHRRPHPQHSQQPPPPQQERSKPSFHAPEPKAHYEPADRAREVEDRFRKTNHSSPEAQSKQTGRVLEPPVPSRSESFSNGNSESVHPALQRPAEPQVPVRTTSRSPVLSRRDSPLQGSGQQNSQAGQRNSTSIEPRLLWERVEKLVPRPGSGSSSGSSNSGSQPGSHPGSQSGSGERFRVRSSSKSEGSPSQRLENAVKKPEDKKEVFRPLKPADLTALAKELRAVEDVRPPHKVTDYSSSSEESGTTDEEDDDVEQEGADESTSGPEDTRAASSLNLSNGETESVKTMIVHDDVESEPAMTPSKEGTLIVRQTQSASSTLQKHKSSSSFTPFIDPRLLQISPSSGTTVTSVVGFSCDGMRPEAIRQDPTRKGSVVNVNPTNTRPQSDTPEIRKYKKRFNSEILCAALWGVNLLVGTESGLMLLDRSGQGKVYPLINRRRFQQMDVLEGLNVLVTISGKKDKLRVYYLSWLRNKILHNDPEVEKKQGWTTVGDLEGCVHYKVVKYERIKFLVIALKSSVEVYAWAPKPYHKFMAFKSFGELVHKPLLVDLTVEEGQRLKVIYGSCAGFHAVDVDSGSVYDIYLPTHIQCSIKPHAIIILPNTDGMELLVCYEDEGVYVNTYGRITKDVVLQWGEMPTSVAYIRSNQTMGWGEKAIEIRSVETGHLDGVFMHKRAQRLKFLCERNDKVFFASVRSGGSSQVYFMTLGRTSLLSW
UniProt Q14289: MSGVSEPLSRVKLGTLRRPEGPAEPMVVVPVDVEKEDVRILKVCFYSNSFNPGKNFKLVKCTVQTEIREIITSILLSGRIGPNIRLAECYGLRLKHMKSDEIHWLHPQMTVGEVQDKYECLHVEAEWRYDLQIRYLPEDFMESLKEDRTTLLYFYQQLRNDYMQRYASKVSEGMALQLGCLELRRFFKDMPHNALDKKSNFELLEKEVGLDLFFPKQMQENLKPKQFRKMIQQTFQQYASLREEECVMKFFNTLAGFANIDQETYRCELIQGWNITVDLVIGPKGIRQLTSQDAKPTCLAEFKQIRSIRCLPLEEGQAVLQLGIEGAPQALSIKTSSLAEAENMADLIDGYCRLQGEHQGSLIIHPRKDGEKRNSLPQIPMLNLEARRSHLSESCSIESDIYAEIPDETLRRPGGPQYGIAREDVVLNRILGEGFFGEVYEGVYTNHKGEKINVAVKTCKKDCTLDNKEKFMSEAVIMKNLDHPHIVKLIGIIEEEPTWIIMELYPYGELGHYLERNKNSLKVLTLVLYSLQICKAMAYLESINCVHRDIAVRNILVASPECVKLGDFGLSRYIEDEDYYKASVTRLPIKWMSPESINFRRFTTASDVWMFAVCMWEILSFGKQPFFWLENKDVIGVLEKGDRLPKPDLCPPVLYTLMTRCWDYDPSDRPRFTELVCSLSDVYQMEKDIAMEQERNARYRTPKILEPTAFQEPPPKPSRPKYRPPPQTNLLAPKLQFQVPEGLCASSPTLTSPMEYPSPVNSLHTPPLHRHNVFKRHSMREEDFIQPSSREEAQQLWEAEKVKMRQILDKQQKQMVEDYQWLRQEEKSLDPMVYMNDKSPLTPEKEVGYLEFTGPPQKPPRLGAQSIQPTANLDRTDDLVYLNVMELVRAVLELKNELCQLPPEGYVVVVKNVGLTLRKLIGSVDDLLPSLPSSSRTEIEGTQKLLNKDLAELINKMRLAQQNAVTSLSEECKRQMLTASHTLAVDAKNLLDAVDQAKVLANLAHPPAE

Target: endogenous MAP4K4 of SF767 glioma cells (human (endogenous in SF767)) (UniProt O95819)
Experiment: co-IP; endogenous proteins: SF767 glioma cells lysed and immunoprecipitated with anti-MAP4K4 antibody, immunoblot

- binding: binds
Substance: endogenous Pyk2 of SF767 glioma cells (from UniProt Q14289 1-1009)
